For 39 targets, log2 fold change results are on record in the supplement of paper PMC12819154, “High-throughput peptide-centric local stability assay extends protein–ligand identification to membrane proteins, tissues and bacteria” (Nature Structural & Molecular Biology, 2025).

The chains behind the UniProt entries cited, without tags or fusion partners. Where a name states a change or a piece, a line headed by the entry shows the natural chain unless it says otherwise.
UniProt P02802: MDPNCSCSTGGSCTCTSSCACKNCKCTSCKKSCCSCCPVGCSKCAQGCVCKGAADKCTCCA
UniProt P15530: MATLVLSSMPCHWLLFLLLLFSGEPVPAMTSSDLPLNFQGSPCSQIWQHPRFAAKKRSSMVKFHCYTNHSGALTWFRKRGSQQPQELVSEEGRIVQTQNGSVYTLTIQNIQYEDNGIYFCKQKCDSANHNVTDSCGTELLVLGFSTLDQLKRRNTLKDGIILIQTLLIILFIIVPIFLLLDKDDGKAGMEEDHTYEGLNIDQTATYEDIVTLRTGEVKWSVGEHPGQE
UniProt P12815: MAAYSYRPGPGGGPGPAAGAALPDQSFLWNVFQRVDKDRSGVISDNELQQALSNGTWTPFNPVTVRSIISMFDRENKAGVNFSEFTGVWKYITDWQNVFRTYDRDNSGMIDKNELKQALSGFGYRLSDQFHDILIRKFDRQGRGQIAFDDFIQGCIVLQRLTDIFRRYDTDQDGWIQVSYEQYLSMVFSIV
UniProt P04104: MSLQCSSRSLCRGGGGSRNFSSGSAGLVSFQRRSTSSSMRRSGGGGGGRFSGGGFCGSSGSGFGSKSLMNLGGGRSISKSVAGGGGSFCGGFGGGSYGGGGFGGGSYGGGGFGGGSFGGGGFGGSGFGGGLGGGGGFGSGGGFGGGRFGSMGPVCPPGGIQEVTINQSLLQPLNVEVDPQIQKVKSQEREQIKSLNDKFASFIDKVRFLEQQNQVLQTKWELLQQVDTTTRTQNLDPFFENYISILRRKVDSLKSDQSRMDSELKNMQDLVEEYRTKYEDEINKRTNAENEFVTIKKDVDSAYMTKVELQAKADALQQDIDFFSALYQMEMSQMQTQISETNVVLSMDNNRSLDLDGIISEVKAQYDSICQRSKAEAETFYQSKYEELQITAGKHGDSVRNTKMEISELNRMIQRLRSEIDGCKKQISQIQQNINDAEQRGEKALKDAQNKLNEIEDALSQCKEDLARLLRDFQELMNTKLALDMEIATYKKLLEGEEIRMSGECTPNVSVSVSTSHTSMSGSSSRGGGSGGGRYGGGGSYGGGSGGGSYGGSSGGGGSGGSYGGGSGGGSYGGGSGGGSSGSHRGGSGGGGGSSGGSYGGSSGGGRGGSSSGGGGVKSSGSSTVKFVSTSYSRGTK
UniProt P08071: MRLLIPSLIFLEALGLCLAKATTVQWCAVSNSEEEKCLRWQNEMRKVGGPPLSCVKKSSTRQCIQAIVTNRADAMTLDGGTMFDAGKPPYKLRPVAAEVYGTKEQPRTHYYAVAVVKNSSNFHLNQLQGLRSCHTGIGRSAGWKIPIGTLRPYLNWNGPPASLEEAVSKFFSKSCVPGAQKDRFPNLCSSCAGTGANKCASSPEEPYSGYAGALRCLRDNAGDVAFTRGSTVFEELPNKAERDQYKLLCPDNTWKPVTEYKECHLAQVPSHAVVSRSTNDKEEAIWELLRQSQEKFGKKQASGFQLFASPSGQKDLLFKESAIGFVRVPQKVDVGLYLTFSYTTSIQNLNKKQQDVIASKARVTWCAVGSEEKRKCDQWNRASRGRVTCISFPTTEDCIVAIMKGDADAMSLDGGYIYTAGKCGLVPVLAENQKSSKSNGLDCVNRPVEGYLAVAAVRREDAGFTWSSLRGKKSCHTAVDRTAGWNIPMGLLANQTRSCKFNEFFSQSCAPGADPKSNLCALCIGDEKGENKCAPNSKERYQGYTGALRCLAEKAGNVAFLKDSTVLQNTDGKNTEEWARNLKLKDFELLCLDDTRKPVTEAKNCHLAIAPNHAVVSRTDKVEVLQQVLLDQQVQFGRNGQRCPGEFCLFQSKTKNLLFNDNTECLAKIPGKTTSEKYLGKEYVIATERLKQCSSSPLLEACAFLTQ
UniProt P10923: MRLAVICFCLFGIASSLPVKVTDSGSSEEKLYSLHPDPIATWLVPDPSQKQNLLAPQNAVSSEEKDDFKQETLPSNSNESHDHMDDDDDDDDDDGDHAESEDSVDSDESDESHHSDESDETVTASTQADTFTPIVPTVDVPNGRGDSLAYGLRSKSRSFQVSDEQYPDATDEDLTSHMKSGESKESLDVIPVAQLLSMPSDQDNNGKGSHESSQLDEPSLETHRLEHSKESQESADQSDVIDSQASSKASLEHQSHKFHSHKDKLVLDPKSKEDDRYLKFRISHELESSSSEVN
UniProt O89086: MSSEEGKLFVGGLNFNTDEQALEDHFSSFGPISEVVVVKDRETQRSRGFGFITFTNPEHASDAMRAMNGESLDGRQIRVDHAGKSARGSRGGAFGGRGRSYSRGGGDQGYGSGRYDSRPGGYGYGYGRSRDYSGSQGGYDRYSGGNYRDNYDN
UniProt P01895: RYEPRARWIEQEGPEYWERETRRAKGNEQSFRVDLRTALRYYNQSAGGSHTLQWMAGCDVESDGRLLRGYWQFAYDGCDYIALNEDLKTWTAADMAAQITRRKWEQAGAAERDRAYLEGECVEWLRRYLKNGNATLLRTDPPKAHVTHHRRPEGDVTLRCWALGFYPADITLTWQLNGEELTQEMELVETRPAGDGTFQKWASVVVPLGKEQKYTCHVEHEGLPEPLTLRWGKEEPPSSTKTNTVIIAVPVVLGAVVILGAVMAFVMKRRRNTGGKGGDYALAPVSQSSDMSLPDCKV
UniProt P09405, whole entry: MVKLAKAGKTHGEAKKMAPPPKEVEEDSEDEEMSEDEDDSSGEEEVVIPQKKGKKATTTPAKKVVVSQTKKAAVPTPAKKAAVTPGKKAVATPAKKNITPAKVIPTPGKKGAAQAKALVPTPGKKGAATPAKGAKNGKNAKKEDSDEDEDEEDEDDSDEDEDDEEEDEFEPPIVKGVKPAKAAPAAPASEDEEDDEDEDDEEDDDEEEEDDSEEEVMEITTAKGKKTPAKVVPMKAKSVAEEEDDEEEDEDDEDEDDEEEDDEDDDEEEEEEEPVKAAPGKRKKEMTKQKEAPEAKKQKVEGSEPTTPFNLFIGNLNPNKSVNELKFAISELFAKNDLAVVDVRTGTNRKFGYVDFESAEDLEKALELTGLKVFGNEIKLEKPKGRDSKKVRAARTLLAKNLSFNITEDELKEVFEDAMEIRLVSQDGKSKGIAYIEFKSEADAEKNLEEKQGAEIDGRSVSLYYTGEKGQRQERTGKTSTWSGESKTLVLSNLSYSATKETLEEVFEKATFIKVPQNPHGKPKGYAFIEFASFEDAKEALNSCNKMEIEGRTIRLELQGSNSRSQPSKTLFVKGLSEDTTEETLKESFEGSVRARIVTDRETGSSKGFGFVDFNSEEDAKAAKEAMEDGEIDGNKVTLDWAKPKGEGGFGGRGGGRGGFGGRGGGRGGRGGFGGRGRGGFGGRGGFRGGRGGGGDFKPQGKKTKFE
UniProt P08228, whole entry: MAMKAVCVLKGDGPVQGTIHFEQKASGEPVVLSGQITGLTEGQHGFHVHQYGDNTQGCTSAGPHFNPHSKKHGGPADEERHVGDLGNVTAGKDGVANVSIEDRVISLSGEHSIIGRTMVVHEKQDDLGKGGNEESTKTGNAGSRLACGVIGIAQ
UniProt P00329: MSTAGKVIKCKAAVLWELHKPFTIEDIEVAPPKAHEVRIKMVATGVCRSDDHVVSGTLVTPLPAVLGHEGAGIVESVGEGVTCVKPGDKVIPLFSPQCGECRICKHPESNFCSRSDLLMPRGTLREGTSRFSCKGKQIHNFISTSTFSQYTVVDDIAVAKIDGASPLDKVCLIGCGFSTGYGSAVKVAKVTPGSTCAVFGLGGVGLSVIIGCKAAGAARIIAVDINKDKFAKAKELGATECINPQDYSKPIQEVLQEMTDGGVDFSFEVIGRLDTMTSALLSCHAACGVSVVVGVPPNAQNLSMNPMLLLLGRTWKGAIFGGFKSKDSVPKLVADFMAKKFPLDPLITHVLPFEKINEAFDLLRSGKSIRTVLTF
UniProt P15508, whole entry: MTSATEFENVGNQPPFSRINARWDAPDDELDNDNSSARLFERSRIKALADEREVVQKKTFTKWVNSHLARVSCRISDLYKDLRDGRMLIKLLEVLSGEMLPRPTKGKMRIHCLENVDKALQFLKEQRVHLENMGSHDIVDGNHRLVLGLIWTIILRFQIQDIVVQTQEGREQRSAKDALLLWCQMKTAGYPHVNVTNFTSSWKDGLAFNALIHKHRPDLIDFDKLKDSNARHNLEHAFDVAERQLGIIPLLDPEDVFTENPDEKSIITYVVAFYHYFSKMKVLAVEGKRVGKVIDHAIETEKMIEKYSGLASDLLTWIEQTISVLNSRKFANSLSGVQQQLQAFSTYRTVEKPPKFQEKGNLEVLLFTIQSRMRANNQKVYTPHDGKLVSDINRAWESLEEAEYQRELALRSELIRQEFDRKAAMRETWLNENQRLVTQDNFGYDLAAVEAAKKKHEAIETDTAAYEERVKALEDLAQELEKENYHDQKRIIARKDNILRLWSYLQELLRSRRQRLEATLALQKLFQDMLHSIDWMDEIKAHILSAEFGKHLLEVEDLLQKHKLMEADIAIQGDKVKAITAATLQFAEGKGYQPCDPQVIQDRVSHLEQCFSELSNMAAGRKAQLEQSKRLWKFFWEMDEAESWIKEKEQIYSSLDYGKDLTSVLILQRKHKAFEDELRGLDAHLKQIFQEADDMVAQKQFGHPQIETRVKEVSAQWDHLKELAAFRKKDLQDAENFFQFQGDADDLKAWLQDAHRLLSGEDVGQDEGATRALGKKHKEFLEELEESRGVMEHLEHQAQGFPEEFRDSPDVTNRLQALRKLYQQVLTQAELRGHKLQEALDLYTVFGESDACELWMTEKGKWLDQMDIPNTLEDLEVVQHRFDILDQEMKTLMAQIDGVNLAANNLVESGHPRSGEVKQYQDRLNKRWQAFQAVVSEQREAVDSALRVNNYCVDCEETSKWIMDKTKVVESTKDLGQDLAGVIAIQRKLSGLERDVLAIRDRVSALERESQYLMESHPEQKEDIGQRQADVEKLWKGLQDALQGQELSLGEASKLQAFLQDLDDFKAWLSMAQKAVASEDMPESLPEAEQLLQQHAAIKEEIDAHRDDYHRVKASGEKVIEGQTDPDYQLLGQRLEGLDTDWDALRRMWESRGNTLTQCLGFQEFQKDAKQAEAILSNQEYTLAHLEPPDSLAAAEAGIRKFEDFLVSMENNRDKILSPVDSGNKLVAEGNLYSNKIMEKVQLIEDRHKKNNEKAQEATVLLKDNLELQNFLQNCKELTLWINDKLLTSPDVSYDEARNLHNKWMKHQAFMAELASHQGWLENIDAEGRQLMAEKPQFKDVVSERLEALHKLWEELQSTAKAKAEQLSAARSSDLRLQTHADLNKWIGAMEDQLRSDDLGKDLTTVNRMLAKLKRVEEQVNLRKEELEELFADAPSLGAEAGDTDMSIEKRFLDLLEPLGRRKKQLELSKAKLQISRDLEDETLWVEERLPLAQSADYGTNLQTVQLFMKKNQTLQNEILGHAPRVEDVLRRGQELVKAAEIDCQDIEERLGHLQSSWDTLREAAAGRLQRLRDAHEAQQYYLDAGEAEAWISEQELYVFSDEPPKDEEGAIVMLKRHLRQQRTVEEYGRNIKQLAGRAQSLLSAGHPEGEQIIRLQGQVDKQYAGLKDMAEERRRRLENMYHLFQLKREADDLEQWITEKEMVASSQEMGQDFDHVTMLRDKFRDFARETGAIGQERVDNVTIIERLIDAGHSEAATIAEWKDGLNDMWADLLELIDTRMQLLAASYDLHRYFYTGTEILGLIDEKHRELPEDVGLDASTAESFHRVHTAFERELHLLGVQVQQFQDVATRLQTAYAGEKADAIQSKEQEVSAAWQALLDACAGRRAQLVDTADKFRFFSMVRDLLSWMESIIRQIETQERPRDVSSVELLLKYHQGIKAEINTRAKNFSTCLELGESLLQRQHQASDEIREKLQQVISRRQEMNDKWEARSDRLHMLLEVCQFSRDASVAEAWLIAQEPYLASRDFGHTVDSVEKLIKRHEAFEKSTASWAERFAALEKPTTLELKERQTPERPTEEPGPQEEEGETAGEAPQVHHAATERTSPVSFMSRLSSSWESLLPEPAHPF
UniProt P10404: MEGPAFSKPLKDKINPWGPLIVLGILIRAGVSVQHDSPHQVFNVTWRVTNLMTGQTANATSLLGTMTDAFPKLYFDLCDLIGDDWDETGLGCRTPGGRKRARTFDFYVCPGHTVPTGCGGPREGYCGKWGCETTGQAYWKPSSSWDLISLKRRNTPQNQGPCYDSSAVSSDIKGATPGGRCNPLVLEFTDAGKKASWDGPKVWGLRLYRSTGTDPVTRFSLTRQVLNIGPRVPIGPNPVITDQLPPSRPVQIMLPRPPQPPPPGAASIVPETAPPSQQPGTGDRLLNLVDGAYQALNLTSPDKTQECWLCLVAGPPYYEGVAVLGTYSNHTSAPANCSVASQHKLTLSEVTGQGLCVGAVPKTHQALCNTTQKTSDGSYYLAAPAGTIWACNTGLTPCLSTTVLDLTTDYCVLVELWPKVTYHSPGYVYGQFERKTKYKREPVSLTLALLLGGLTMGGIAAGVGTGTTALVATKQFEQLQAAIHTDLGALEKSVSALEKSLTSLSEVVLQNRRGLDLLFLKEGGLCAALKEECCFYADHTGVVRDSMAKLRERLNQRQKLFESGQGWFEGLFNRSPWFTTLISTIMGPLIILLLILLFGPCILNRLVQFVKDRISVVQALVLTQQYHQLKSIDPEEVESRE

The other results are listed elsewhere or left out. Small differences around the control level are noise.

Compound in this assay: CN[C@@H]1C[C@H]2O[C@@](C)([C@@H]1OC)n1c3ccccc3c3c4c(c5c6ccccc6n2c5c31)C(=O)NC4 [staurosporine]
In words: log2 fold change of tryptic peptide abundance, ligand vs vehicle (limited proteolysis) (log2 ratio); higher = more trypsin-susceptible (destabilized). Particulars: ligand concentration: 20 uM; sample: mouse liver crude lysate; replicate design: treated separately.
As to “UniProt P03953 (peptide sequence: TYHDGVVTINMMCAESNRR, peptide start residue: 184)”, the log2 fold change stood at 0.131.

Consider “UniProt P07759 (peptide sequence: KLSVSQVVHK, peptide start residue: 351)”, for which the log2 fold change is 0.349.

“UniProt O89053 (peptide sequence: HVFGQPAK, peptide start residue: 13)”: the log2 fold change is -0.636.

As to “UniProt P0CG14 (peptide sequence: LGGLPGPGPMANPR, peptide start residue: 139)”, the log2 fold change came to 0.109.

In the case of “UniProt P02802 (peptide sequence: CAQGCVCK, peptide start residue: 44)”, the log2 fold change amounted to 0.0596.

“UniProt O88986 (peptide sequence: IAHFHQR, peptide start residue: 116)”: the log2 fold change was -0.214.

Regarding “UniProt P0C7T6 (peptide sequence: GAIIQLATGELK, peptide start residue: 470)”, the log2 fold change came out at 0.362.

“UniProt P0DPD9 (peptide sequence: TPVSPPELPEKNFQYR, peptide start residue: 6)”: the log2 fold change was determined as 0.229.

With “UniProt P04919 (peptide sequence: ANFLEKPVLGFVR, peptide start residue: 247)”, the log2 fold change was -0.539.

Consider “UniProt P11983 (peptide sequence: YPVNSVNILKAHGR, peptide start residue: 190)”, for which the log2 fold change worked out at 0.892.

Consider “UniProt P11260 (peptide sequence: IQEMEER, peptide start residue: 216)”, for which the log2 fold change is -0.135.

Consider “UniProt P11152 (peptide sequence: DFSDIESK, peptide start residue: 33)”, for which the log2 fold change is -0.296.

For the target “UniProt P15530 (peptide sequence: WSVGEHPGQE, peptide start residue: 219)”, the log2 fold change was -0.279.

For “UniProt P07146 (peptide sequence: IVGGYTCR, peptide start residue: 24)”, the log2 fold change is -0.168.

Take “UniProt P12815 (peptide sequence: YITDWQNVFR, peptide start residue: 91)”: the log2 fold change is -0.165.

With “UniProt P10711 (peptide sequence: APSTSDSVR, peptide start residue: 133)”, the log2 fold change is -0.436.

On to “UniProt P04104 (peptide sequence: YEDEINKR, peptide start residue: 185)”, for which the log2 fold change is -0.205.

Consider “UniProt P04441 (peptide sequence: DLISNHEQLPILGNRPR, peptide start residue: 6)”, for which the log2 fold change is 0.223.

For “UniProt O89051 (peptide sequence: YQTIEENIK, peptide start residue: 112)”, the log2 fold change is -0.0635.

Regarding “UniProt P07724 (peptide sequence: KQTALAELVK, peptide start residue: 549)”, the log2 fold change worked out at 0.501.

In the case of “UniProt P08071 (peptide sequence: SCHTGIGR, peptide start residue: 132)”, the log2 fold change was 0.266.

On to “UniProt O89084 (peptide sequence: IMAEFFQQGDRER, peptide start residue: 565)”, for which the log2 fold change is -0.22.

For the target “UniProt P12023 (peptide sequence: QQLVETHMAR, peptide start residue: 451)”, the log2 fold change is 0.269.

As to “UniProt P11609 (peptide sequence: TDSVVWLGDLQTHR, peptide start residue: 44)”, the log2 fold change is -0.519.

For “UniProt P0C027 (peptide sequence: VLQCHKPVHAEYLEK, peptide start residue: 127)”, the log2 fold change was -0.162.

“UniProt P04370 (peptide sequence: YLATASTMDHAR, peptide start residue: 146)”: the log2 fold change worked out at 0.122.

Turning to “UniProt P10923 (peptide sequence: ASLEHQSHK, peptide start residue: 249)”, the log2 fold change was 1.4.

Consider “UniProt P02301 (peptide sequence: EIAQDFKTDLR, peptide start residue: 74)”, for which the log2 fold change came out at 0.126.

With “UniProt O89086 (peptide sequence: PGGYGYGYGR, peptide start residue: 119)”, the log2 fold change was 0.348.

Consider “UniProt P01895 (peptide sequence: WASVVVPLGK, peptide start residue: 268)”, for which the log2 fold change worked out at 0.0988.

Consider “UniProt P09405 (peptide sequence: SVSLYYTGEKGQR, peptide start residue: 460)”, for which the log2 fold change was -0.239.

For “UniProt P08228 (peptide sequence: QDDLGKGGNEESTK, peptide start residue: 124)”, the log2 fold change was -0.891.

In the case of “UniProt P12787 (peptide sequence: LNDFASAVR, peptide start residue: 95)”, the log2 fold change is -0.227.

Take “UniProt P00329 (peptide sequence: SIRTVLTF, peptide start residue: 368)”: the log2 fold change came to 0.404.

In the case of “UniProt P15508 (peptide sequence: RQEMNDKWEAR, peptide start residue: 1982)”, the log2 fold change was -0.97.

As for “UniProt P13020 (peptide sequence: SGALNSNDAFVLK, peptide start residue: 583)”, the log2 fold change is 0.266.

Consider “UniProt P10404 (peptide sequence: STGTDPVTR, peptide start residue: 210)”, for which the log2 fold change is -0.235.

As to “UniProt P09803 (peptide sequence: NDVAPTLMSVPQYRPR, peptide start residue: 787)”, the log2 fold change was -0.223.

For the target “UniProt P11859 (peptide sequence: LTLPQLEIR, peptide start residue: 370)”, the log2 fold change was determined as 0.173.
